The list shows a part of the results.

In this assay the target is T1, OsSMF1 (Oryza sativa, UniProt Q6ZLB0 1-436).
T1 sequence: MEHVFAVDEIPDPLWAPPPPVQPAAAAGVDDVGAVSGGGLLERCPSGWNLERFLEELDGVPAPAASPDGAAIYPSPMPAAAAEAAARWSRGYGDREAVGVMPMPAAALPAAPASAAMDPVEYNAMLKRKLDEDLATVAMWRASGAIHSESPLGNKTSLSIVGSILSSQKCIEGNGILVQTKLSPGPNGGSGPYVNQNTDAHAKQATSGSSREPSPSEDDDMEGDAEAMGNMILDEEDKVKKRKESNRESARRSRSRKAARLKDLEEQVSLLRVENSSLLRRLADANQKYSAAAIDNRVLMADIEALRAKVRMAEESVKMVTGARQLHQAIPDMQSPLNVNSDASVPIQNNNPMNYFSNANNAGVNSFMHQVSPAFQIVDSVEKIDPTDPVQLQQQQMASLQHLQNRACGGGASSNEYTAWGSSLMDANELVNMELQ
Kind of assay: protein-binding microarray (RPBM); PBS, 2% BSA, 51.3 ng/ul salmon testes DNA, 50 uM zinc acetate, 200 nM TF, 25 C, 1 h; high values mean tight binding. The conditions noted are these: protein: recombinant; tags: N-terminal polyhistidine and DsRed monomer fusion (pET32a); chain copies: 2; label: CyDye5-dUTP incorporated in the synthesized complementary strand; 3' TTTTT single-stranded linker to array surface; dsDNA, one strand shown. The gist of the method: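 The binding signal for each feature is its fluorescence intensity in arbitrary units. An Axon 4000B scanner was used to read a custom Agilent array that had been made double-stranded with Cy5-dUTP primer extension, blocked with 2% BSA, incubated at 25 °C for 1 h with 200 nM protein in PBS, 2% BSA, salmon testes DNA and 50 µM zinc acetate, and washed. The protein was an N-terminal polyhistidine–DsRed transcription factor fusion from E. coli BL21-CodonPlus, purified on Ni–NTA.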
“GCATCTGGCGAAAGTGCCACCCCTACGTGCCCTTAAATTGCGGAGTCACCTAGTGCAG”: the binding signal was 3730 fluorescence intensity (a.u.).
For the sequence “GTGAGGCCGCCGTCGCCACGCACTCGACCGCCTTTGCTCCCGGAGTCACCTAGTGCAG”, the binding signal is 5050 fluorescence intensity (a.u.).
In the case of “GCTGTTGACGTACATGTCGTCATATACGCATGTCCTCGTTCGGAGTCACCTAGTGCAG” it was 6920 fluorescence intensity (a.u.); in that of “TGAGTTGAGGTGATGCTGATCGCTCATCGCTCTTCATGTGCGGAGTCACCTAGTGCAG”, 3220 fluorescence intensity (a.u.); in that of “GCGATGAGGTGTCACATACCGTGACGTCACCATTTTCATTCGGAGTCACCTAGTGCAG”, 25900 fluorescence intensity (a.u.).
As for “ATGTGGCGGCAGAGTGGGAGTAGAAGGCTGGGACGGCGCGCGGAGTCACCTAGTGCAG”, the binding signal was 10600 fluorescence intensity (a.u.).
Regarding “AAAGAATTTCACACTTTGATTGCAGATGTCATTTCCAGTGCGGAGTCACCTAGTGCAG”, the binding signal was 3500 fluorescence intensity (a.u.).
In the case of “CTTCGCCTCGTCGGCCATTACACGCGGCAGCGGCCCTCATCGGAGTCACCTAGTGCAG” it was 3430 fluorescence intensity (a.u.).
“CCCAACGCGTCACGCCGCCATTTCTTGGCCTCCCACTCGCCGGAGTCACCTAGTGCAG”: the binding signal was 5190 fluorescence intensity (a.u.).
Then “ATGGCCAGACAACTGTGTGGCCAGGAAGAACACATCCCTGCGGAGTCACCTAGTGCAG”, with 3150 fluorescence intensity (a.u.); and “CACCTTCAGCACCGGAAAGTGTTGGTGACGGGGCATTTGGCGGAGTCACCTAGTGCAG”, with 4770 fluorescence intensity (a.u.).
As for “TCCGATTTGGTACACGTAGCAAGTTAACACACCCAACGCGCGGAGTCACCTAGTGCAG”, the binding signal is 4320 fluorescence intensity (a.u.).
In the case of “TTGTCGAGGTCGCTAGATCCACTTTAGGGGTGGCAACGCACGGAGTCACCTAGTGCAG” it was 3140 fluorescence intensity (a.u.); in that of “ACTGCAATTTTATTCACTCTGTGCGTGTCACATCTGGGTCCGGAGTCACCTAGTGCAG”, 5320 fluorescence intensity (a.u.).
With “GGAAGCCATTTCACGTTCGAATCTTATGTCAGCCAGCTTACGGAGTCACCTAGTGCAG”, the binding signal is 3900 fluorescence intensity (a.u.).
In the case of “GGGCCGAACCTTGGGCCCACACGACAGATCGTGACAGCCGCGGAGTCACCTAGTGCAG” it was 3280 fluorescence intensity (a.u.).
Regarding “CTTAAACACTACCTAGTGTACAAGTCAGTACTACAGTACACGGAGTCACCTAGTGCAG”, the binding signal is 3210 fluorescence intensity (a.u.).
Turning to “AATTTCACACGCAATATCTATCACACGTGTCAGTGATGCACGGAGTCACCTAGTGCAG”, the binding signal is 18900 fluorescence intensity (a.u.).
For the sequence “GGCTGTTCGAAATCAATATTGTTGTAGGTGACTGAACTAGCGGAGTCACCTAGTGCAG”, the binding signal is 15100 fluorescence intensity (a.u.).
Then “CGCTGTTTCTTCGTACGTGGCTGTTTAGGCTCCTCAGAAACGGAGTCACCTAGTGCAG”, with 4710 fluorescence intensity (a.u.).
In the case of “AACCGGAGAGCGGTGACGCGGACGTGCCTGCCCAACGCAACGGAGTCACCTAGTGCAG” it was 5410 fluorescence intensity (a.u.).
Turning to “AATTACAGATTCCGTCAGAAAACTGTGAGACAGATTTATTCGGAGTCACCTAGTGCAG”, the binding signal is 3290 fluorescence intensity (a.u.).
In the case of “GCATCTGCAGTGACACACAATTAGGTGAACTAACAACGTCCGGAGTCACCTAGTGCAG” it was 3890 fluorescence intensity (a.u.).
For the sequence “CAGGTCGGACGTGTAGCGTAGCGTCCCTTTCCCATATTGACGGAGTCACCTAGTGCAG”, the binding signal was 3720 fluorescence intensity (a.u.).
“CTTTGCACTGTTCGATTCATTCGTCACGGCACAAGAAACCCGGAGTCACCTAGTGCAG”: the binding signal is 3390 fluorescence intensity (a.u.).
As for “TTGTCAGCTTCTACACGGACATATGTCACAGTGCTTCACGCGGAGTCACCTAGTGCAG”, the binding signal is 3750 fluorescence intensity (a.u.).
In the case of “TTGGCTTCTTCAACTTACGTTACCCAATGCATTATATTTGCGGAGTCACCTAGTGCAG” it was 4300 fluorescence intensity (a.u.); in that of “TTGTCTCCCATGCCTATGTCATCCATACAACGTTACTTCACGGAGTCACCTAGTGCAG”, 5610 fluorescence intensity (a.u.).
Take “CAGAATAATCATTTGTCATCAATGTGTGCTGTGTGGTGGTCGGAGTCACCTAGTGCAG”: the binding signal was 3360 fluorescence intensity (a.u.).
In the case of “CATCTGCGAGGTCATCAAAACCCTACCCGAGCGGCCACACCGGAGTCACCTAGTGCAG” it was 3420 fluorescence intensity (a.u.); in that of “TACCCTTTGCCGACTGTTGGCGTGAAGGCAATTGTTTTGTCGGAGTCACCTAGTGCAG”, 3140 fluorescence intensity (a.u.).
Take “TAGGGTGCCCATCAATTAGTTTGATTAATTACAAGGCAGCCGGAGTCACCTAGTGCAG”: the binding signal is 5120 fluorescence intensity (a.u.).
In the case of “CCTCTCGCCGCCGCCGCCGCGCCATTGCCGGATTTCACCCCGGAGTCACCTAGTGCAG”, the binding signal is 4120 fluorescence intensity (a.u.).
Regarding “GCAGGCAGATAAAACGTACACTCCACAGCTCACACCTTCCCGGAGTCACCTAGTGCAG”, the binding signal was 3480 fluorescence intensity (a.u.).
In the case of “GTCGCACCTCGCAGCACACGCGTCAGCACCTCGACCCAACCGGAGTCACCTAGTGCAG” it was 7480 fluorescence intensity (a.u.); in that of “AAACAAGATCGTCGGCTCCCCGCCCTATCCACGAGTCCACCGGAGTCACCTAGTGCAG”, 3210 fluorescence intensity (a.u.).
As to “CATTGCACAGGAAGCATGAAATTTAACTTCTGGAGTTTGGCGGAGTCACCTAGTGCAG”, the binding signal is 18600 fluorescence intensity (a.u.).
Turning to “TCTTCTGAATGCTCACAATGACGCCATCCTCATCAGCCGCCGGAGTCACCTAGTGCAG”, the binding signal is 4480 fluorescence intensity (a.u.).
Then “CACAACTAGAGCATGGAATTACACTATGGCTATGTTTAGACGGAGTCACCTAGTGCAG”, with 20900 fluorescence intensity (a.u.).
Take “TGACATGTGGGACCCACGTGGGTCCCTCGCTGACTCAGCCCGGAGTCACCTAGTGCAG”: the binding signal is 17900 fluorescence intensity (a.u.).
With “CTCATTTCGTGCAGTTGAGAAGCTCATCCAAACATCCATACGGAGTCACCTAGTGCAG”, the binding signal was 3960 fluorescence intensity (a.u.).
Then “CTATGTGATGTGTATTTGTGAGTAGGACTACACAGCGAAACGGAGTCACCTAGTGCAG”, with 6020 fluorescence intensity (a.u.).
